# Laboratory results from patent US12710427B2, “Anti-human neurotensin receptor 1 antibody and use thereof” (National Health Research Institutes, priority 2020, dated 2026).
# Some entries share one result that the patent states for a list of compounds.
# B1: V66A: h7C3-2 variant, V66A in CDR H2 (antibody, V domains shown)
# VH: QVQLQQPGSVLVRPGASVKLSCKASGYTFTSSWIHWAKQRPGQGLEWIGQIRPNSGNTYYNEKFKAKATLTVDTSSSTAYVDLSSLTSEDSAVYYCARYHYGFDYWGQGTLVTVSS
# VL: DVLMTQTPLSLPVSLGDQASISCRSSQSIVHSNGNTYLEWYLQKPGQSPKLLIYKVSNRFSGVPDRFSGSGSGTDFTLKISRVEAEDLGVYYCFQGAHLPWTFGGGTKLEIKR
# B2: Y27A: h7C3-2 variant, Y27A in CDR H1 (antibody, V domains shown)
# VH: QVQLQQPGSVLVRPGASVKLSCKASGATFTSSWIHWAKQRPGQGLEWIGQIRPNSGNTYYNEKFKVKATLTVDTSSSTAYVDLSSLTSEDSAVYYCARYHYGFDYWGQGTLVTVSS
# VL: DVLMTQTPLSLPVSLGDQASISCRSSQSIVHSNGNTYLEWYLQKPGQSPKLLIYKVSNRFSGVPDRFSGSGSGTDFTLKISRVEAEDLGVYYCFQGAHLPWTFGGGTKLEIKR
# B3: W33A: h7C3-2 variant, W33A in CDR H1 (antibody, V domains shown)
# VH: QVQLQQPGSVLVRPGASVKLSCKASGYTFTSSAIHWAKQRPGQGLEWIGQIRPNSGNTYYNEKFKVKATLTVDTSSSTAYVDLSSLTSEDSAVYYCARYHYGFDYWGQGTLVTVSS
# VL: DVLMTQTPLSLPVSLGDQASISCRSSQSIVHSNGNTYLEWYLQKPGQSPKLLIYKVSNRFSGVPDRFSGSGSGTDFTLKISRVEAEDLGVYYCFQGAHLPWTFGGGTKLEIKR
# B4: I34A: h7C3-2 variant, I34A in CDR H1 (antibody, V domains shown)
# VH: QVQLQQPGSVLVRPGASVKLSCKASGYTFTSSWAHWAKQRPGQGLEWIGQIRPNSGNTYYNEKFKVKATLTVDTSSSTAYVDLSSLTSEDSAVYYCARYHYGFDYWGQGTLVTVSS
# VL: DVLMTQTPLSLPVSLGDQASISCRSSQSIVHSNGNTYLEWYLQKPGQSPKLLIYKVSNRFSGVPDRFSGSGSGTDFTLKISRVEAEDLGVYYCFQGAHLPWTFGGGTKLEIKR
# B5: H35A: h7C3-2 variant, H35A in CDR H1 (antibody, V domains shown)
# VH: QVQLQQPGSVLVRPGASVKLSCKASGYTFTSSWIAWAKQRPGQGLEWIGQIRPNSGNTYYNEKFKVKATLTVDTSSSTAYVDLSSLTSEDSAVYYCARYHYGFDYWGQGTLVTVSS
# VL: DVLMTQTPLSLPVSLGDQASISCRSSQSIVHSNGNTYLEWYLQKPGQSPKLLIYKVSNRFSGVPDRFSGSGSGTDFTLKISRVEAEDLGVYYCFQGAHLPWTFGGGTKLEIKR
# B6: Q50A: h7C3-2 variant, Q50A in CDR H2 (antibody, V domains shown)
# VH: QVQLQQPGSVLVRPGASVKLSCKASGYTFTSSWIHWAKQRPGQGLEWIGAIRPNSGNTYYNEKFKVKATLTVDTSSSTAYVDLSSLTSEDSAVYYCARYHYGFDYWGQGTLVTVSS
# VL: DVLMTQTPLSLPVSLGDQASISCRSSQSIVHSNGNTYLEWYLQKPGQSPKLLIYKVSNRFSGVPDRFSGSGSGTDFTLKISRVEAEDLGVYYCFQGAHLPWTFGGGTKLEIKR
# B7: R52A: h7C3-2 variant, R52A in CDR H2 (antibody, V domains shown)
# VH: QVQLQQPGSVLVRPGASVKLSCKASGYTFTSSWIHWAKQRPGQGLEWIGQIAPNSGNTYYNEKFKVKATLTVDTSSSTAYVDLSSLTSEDSAVYYCARYHYGFDYWGQGTLVTVSS
# VL: DVLMTQTPLSLPVSLGDQASISCRSSQSIVHSNGNTYLEWYLQKPGQSPKLLIYKVSNRFSGVPDRFSGSGSGTDFTLKISRVEAEDLGVYYCFQGAHLPWTFGGGTKLEIKR
# B8: Y59A: h7C3-2 variant, Y59A in CDR H2 (antibody, V domains shown)
# VH: QVQLQQPGSVLVRPGASVKLSCKASGYTFTSSWIHWAKQRPGQGLEWIGQIRPNSGNTAYNEKFKVKATLTVDTSSSTAYVDLSSLTSEDSAVYYCARYHYGFDYWGQGTLVTVSS
# VL: DVLMTQTPLSLPVSLGDQASISCRSSQSIVHSNGNTYLEWYLQKPGQSPKLLIYKVSNRFSGVPDRFSGSGSGTDFTLKISRVEAEDLGVYYCFQGAHLPWTFGGGTKLEIKR
# B9: h7C3-3: 7C3 variant bearing T28A in CDR H1, Y100H in CDR H3 and S97A in CDR L3 (antibody, V domains shown)
# VH: QVQLQQPGSVLVRPGASVKLSCKASGYAFTSSWIHWAKQRPGQGLEWIGQIRPNSGNTYYNEKFKVKATLTVDTSSSTAYVDLSSLTSEDSAVYYCARYHYGFDYWGQGTLVTVSS
# VL: DVLMTQTPLSLPVSLGDQASISCRSSQSIVHSNGNTYLEWYLQKPGQSPKLLIYKVSNRFSGVPDRFSGSGSGTDFTLKISRVEAEDLGVYYCFQGAHLPWTFGGGTKLEIKR
# System: cyclic ECL2 peptide of NTSR1
# Assay: NTSR1-binding affinity ELISA (alanine scanning variants)
# Design: species or system human
# Settings: alanine scanning of CDR H1 and CDR H2 of h7C3-2
# Protocol: The NTSR1-binding capacity of different antibodies were measured by ELISA. Briefly, NeutrAvidin 96-well plates (Pierce Cat:15128) were coated with cyL2-Biotin peptides at a final concentration of 5 μg/ml at […]. On the following day, the coating solution was removed, and the plates were blocked with 5% (v/v) non-fat dry milk in phosphate buffer saline (PBS) for 1 hour. After washing with PBST, gradient concentrations of anti-NTSR1 antibodies were added in triplicate. After 1 hour of incubation, the plate was washed three times with PBST, followed by the addition of horseradish peroxidase (HRP)-conjugated goat anti-human IgG Fc antibody (100 μL) into each well for an additional hour at RT. Finally, 100 μL of tetramethylbenzidine (TMB) substrate was added into each well to produce color for visualization. After 2 minutes of incubation, 100 μL of 2M H2SO4 was used to stop the reaction. The absorbance of each well was read at 450 nm with a plate reader. Flow cytometry
Molecule,retained h7C3-2 binding activity,decrease of apparent affinity of h7C3-2 for the peptide
B1,> 80%,
B2,,≥ 50%
B3,,≥ 50%
B4,,≥ 50%
B5,,≥ 50%
B6,,≥ 50%
B7,,≥ 50%
B8,,≥ 50%
B9,> 80%,
